Source: patent publication US5240961A, “Method of treating reduced insulin-like growth factor and bone loss associated with aging” (priority 1992, dated 1993)
For at least one compound, name, drawing or mass did not settle the structure.

Tested on: serum osteocalcin
Assay: Comparative effects of L-carnitine, acetyl carnitine and γ-butyrobetaine on serum osteocalcin in adult mice
Type: in vivo, mouse (BALB/c male)
Experimental: The present invention is further explained by the following examples which should not be construed by way of limiting the scope of the present invention. In the following examples, serum carnitine levels were determined by the method of R. Parvin et al., Anal. Biochem., vol. 79 (1979) pp. 190-201. Serum IGF-1 concentrations were measured by immunoradiometric assay, for example, by IRMA Kit available from Diagnostic Systems Laboratories, Inc., Webster, Texas. Serum osteocalcin levels were measured according to the method of Grunaberg et al., Meth. Enzymology, vol 107 (1984) 516, and which is embodied in an osteocalcin kit available from Biomedical Technologies, Inc., Stoughton, Mass. All mice used in the animal studies were BALB/c strain which is commercially available.
Tests were performed to compare the effects on serum osteocalcin of diet supplementation with L-carnitine, its precursor, γ-butyrobetaine (available from Aldrich Chemical Co.) and one of its metabolites, acetylcarnitine (available from Life Science Resources, Milwaukee, Wis. 53223). Twenty adult mice, i.e., three months of age, (BALB/c male mice) were divided into seven groups. Each of the groups was fed diets as indicated hereinbelow for twelve weeks. […] The samples were evaluated for serum osteocalcin levels at six and twelve weeks. Total carnitine was determined at twelve weeks.

CC(=O)O[C@H](CC(=O)[O-])C[N+](C)(C)C [acetyl L-carnitine, acetylcarnitine, reference compound]
significance of difference in osteocalcin vs control (p, student's t test) (100 mg/kg/day): no significant | effect on osteocalcin (adult mice, 50 and 100 mg/kg/day): inhibitory effect on osteocalcin production
